Values from PubChem BioAssay AID504808 (Drosophila RNAi Screening Center, 2011)

- Assay: 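Genes whose loss lifts activity of an E2F-responsive reporter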 (primary screen)
- Cell system: Drosophila S2 cells
- Reagents: long dsRNA against Drosophila genes
- Measured: 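Firefly luciferase driven by E2F sites, normalised to Renilla luciferase on the same minimal promoter, measured by plate reader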
- Direction: E2F firefly: higher = more E2F reporter activity; Renilla normaliser: higher = more normaliser reporter signal
- Rule for the call: 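Called active if the normalised E2F reporter went up by over 50%; the cutoff is arbitrary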
The screen tested about 21,000 reagents; shown is an unselected part of those that have a named target and a result. Of all reagents, 18 (0.084%) got an active call. 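Raw counts without plate normalisation, one of two replicates; the ratio scores behind the calls were not deposited.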 A number with no mark means an inactive call. Reagents against one gene are numbered here. Reagent sequences are not shown. Not stated in the record: the amount of reagent, the time to read-out.

target gene	dsRNA no.	E2F firefly, rep 1	Renilla normaliser, rep 1
MED17 (Mediator complex subunit 17)	1	56851	3076
CG7252	1	66119	3080
CG11247	1	65009	3023
CG14362	1	1.07e5	7893
Rpn1 (Regulatory particle non-ATPase 1)	1	52697	3864
Rif1 (Rap1 interacting factor 1)	1	1.01e5	4994
GstE2 (Glutathione S transferase E2)	1	1.44e5	4564
CG17470	1	84398	3578
Doc3 (Dorsocross3)	1	1.06e5	3537
mod(mdg4) (modifier of mdg4)	1	81401	2740
mod(mdg4) (modifier of mdg4)	2	74350	2584
mod(mdg4) (modifier of mdg4)	3	84765	2553
mod(mdg4) (modifier of mdg4)	4	82492	2460
mod(mdg4) (modifier of mdg4)	5	1.42e5	7815
mod(mdg4) (modifier of mdg4)	6	75110	5077
Fatp3 (Fatty acid transport protein 3)	1	98960	4070
zuc (zucchini)	1	82186	3102
CG15207 (retired record)	1	1.32e5	5927
GATAd	1	63622	3223
Sar1 (Secretion-associated Ras-related 1)	1	91111	6256
Su(var)3-7 (Suppressor of variegation 3-7)	1	1.07e5	5805
UQCR-C2 (Ubiquinol-cytochrome c reductase core protein 2)	1	1.55e5	7527
aln (allnighter)	1	79662	4090
CG7203	1	1.55e5	5305
CG12081	1	7983	848
mld (molting defective)	1	72919	2515
mld (molting defective)	2	61887	3828
CG33229	1	1.35e5	4013
santa-maria	1	1.23e5	6524
santa-maria	2	86482	3810
faf (fat facets)	1	59659	4279
CG11356	1	1.45e5	6286
CG8997	1	92304	4196
CG11839	1	1.43e5	6070
Fcp1 (TFIIF-interacting CTD phosphatase)	1	86964	3990
CG1722	1	1.34e5	7169
CG8728	1	3922	196
CG2611	1	83285	3692
dysf (dysfusion)	1	1.27e5	6432
dysf (dysfusion)	2	89571	5325
dysf (dysfusion)	3	1.16e5	6743
dysf (dysfusion)	4	50305	4074
CG7300	1	86565	3017
CG31741	1	1.00e5	4321
dom (domino)	1	1.39e5 (active)	187
dom (domino)	2	1.22e5	4323
boss (bride of sevenless)	1	1.14e5	5687
Pepck2 (Phosphoenolpyruvate carboxykinase 2)	1	1.66e5	4921
CG6893	1	1.58e5	6561
Nnp-1	1	97073	4139
CG15357	1	1.65e5	5538
ash2 (absent, small, or homeotic discs 2)	1	66719	4193
kek5 (kekkon 5)	1	1.36e5	7232
Mnr (Membrane-bound Notch regulator)	1	1.36e5	5222
Mnr (Membrane-bound Notch regulator)	2	1.38e5	5198
Hat1 (Histone acetyltransferase 1)	1	1.48e5	6626
CASK	1	1.47e5	6766
CASK	2	1.31e5	7106
CASK	3	1.54e5	7244
feo (fascetto)	1	61219	3258
CG11384	1	54450	3553
AgmNAT (Agmatine N-acetyltransferase)	1	43864	3353
Bruce (BIR repeat containing ubiquitin-conjugating enzyme)	1	1.60e5	5577
Ugt35A1 (UDP-glycosyltransferase family 35 member A1)	1	70431	3670
DCP2 (Decapping protein 2)	1	53682	170
Sce (Sex combs extra)	1	1285	944
puc (puckered)	1	65077	4581
CG34320 (retired record)	1	77507	2714
CG12851	1	1.25e5	4281
Sans (Scaffold protein containing ankyrin repeats and SAM domain)	1	117	31
epsilonTry (epsilonTrypsin)	1	1.14e5	4862
CG9570	1	1.30e5	5658
dati (datilografo)	1	1791	960
dati (datilografo)	2	1.24e5	6087
CG12395	1	1.52e5	6939
CG14488	1	1.45e5	5132
CG11504	1	1887	848
CG17562	1	1.05e5	5598
CG1418	1	1.53e5	5266
CCT1 (Chaperonin containing TCP1 subunit 1)	1	1.07e5	7088
jef (jet fuel)	1	1.01e5	4668
CG31465	1	70658	2950
Txl (Thioredoxin-like)	1	76152	3337
CG6304	1	84129	2974
eEFSec	1	1.08e5	4779
gcm2	1	1.39e5	4779
CG15701	1	1.64e5	5078
CG6550	1	89054	3806
Picot	1	61309	3111
CG9289	1	1.41e5	5011
CanB (Calcineurin B)	1	74103	5883
mRpL30 (mitochondrial ribosomal protein L30)	1	1.05e5	5555
l(1)G0320 (lethal (1) G0320)	1	7491	800
Mad1 (Mitotic arrest-deficient 1)	1	3087	50
Ih (I[[h]] channel)	1	2852	186
HINT1 (histidine triad nucleotide binding protein 1)	1	1.68e5	5643
Btnd (Biotinidase)	1	1.04e5	5439
egh (egghead)	1	1.16e5	5994
CG4393	1	91087	5029
CG15923	1	56183	3022
CG17321	1	1.11e5	5355
dnc (dunce)	1	1.00e5	5937
dnc (dunce)	2	1.12e5	5593
dnc (dunce)	3	1.31e5	6270
dnc (dunce)	4	1.10e5	5400
dnc (dunce)	5	1.10e5	4790
CG34046 (retired record)	1	81394	2396
